{"sequences": {"note": "Chains of the proteins cited; added tags and fusions are not shown. Residues count along the entry.", "UniProt P56817, 46-501": "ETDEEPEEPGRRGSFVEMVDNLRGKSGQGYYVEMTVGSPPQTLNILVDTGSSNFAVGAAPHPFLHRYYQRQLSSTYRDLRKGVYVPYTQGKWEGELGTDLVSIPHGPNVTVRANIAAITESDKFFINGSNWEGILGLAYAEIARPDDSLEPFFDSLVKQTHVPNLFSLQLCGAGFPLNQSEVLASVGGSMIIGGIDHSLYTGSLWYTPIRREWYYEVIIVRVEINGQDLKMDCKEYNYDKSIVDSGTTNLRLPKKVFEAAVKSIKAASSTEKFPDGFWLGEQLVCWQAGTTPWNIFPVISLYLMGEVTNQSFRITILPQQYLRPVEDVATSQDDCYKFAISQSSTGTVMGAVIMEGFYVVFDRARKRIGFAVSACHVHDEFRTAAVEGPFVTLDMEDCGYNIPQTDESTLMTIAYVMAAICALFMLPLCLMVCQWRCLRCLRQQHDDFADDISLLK"}, "source": "paper PMC4608735", "biological_target": "BACE1 from M17-APPsw cell lysate (UniProt P56817)", "assay": "pull-down (streptavidin beads) + immunoblot", "details": "protein in an extract, single-stranded DNA", "note": "Construct, isoform or probe ends are uncertain for at least one entry. At least one result comes from cells or an extract, where the contact may be indirect."}
{"sequence": "GCAATGGTACGGTACTTCCGTCATCAGCTTGTGATGTGGATGCGAACTGCAAAAGTGCACGCTACTTTGCTAA [A1]", "values": [{"measurement": "binding result", "result": "binds"}]}
